Experimental data as given in patent publication US20240228612A1.
Results are given in words; binding and its absence hold for the method and conditions named. Binding can be weak; no strength is given.

How the values were obtained:
[1] = molecular target: cynomolgus monkey Nectin-4 protein (cynomolgus monkey); assay: BLI (Octet Fortebio)
[2] = molecular target: cynomolgus monkey Nectin-4 protein (cynomolgus monkey); assay: ELISA, coated cynomolgus monkey Nectin-4, anti-human-HRP
[3] = molecular target: cynomolgus monkey Nectin-4 protein (cynomolgus monkey); assay: ELISA, coated antigen

binding [1]	binding [2]	binding [3]	Binder
binds	binds	binds	anti-human Nectin-4 humanized monoclonal antibody 56HZ (antibody, human IgG1, kappa, V domains shown) VH: QVQLQESGPGLVKPSQTLSLTCTVSGYFNSITSDYDWHWIRHHPGKGLEWMGYISFSGRTYYNPSLKSRVTISHDTSKNQFSLKLSSVTAADTAVYYCARGNYDGFDYWGQGTLVTVSS VL: DIVLTQSPATLSLSPGERATLSCRASQNIGTSIHWYQHKPGQSPRLLIKFASESISGIPARFSGSGSGTDFTLTISSLEPEDFAVYYCQQSKSWPTYTFGGGTKVEIKR
binds	binds	binds	anti-human Nectin-4 humanized monoclonal antibody 31HZ (antibody, human IgG1, kappa, V domains shown) VH: QVQLVQSGAEVKKPGSSVKVSCKASGYTFTDYWMNWVRLAPGQGLEWIGMIHPSDSETRLNQKFQGRVTLTVDKSTSTAYMELSSLRSEDTAVYYCARWDFRIYYAMDYWGQGTLVTVSS VL: DVVITQSPDSLAVSLGERATINCKSSQSLLNTNSQKNYLAWYQQKPGQSPKLLVYFASTRESGVPDRFSGSGSGTDFTLTISSLQAEDVAVYFCQQHYSTPLTFGGGTKVEIKR
binds	binds	binds	anti-human Nectin-4 humanized monoclonal antibody 74HZ (antibody, human IgG1, kappa, V domains shown) VH: QVQLVQSGAEVKKPGSSVKVSCKASGYTFINYWMNWVRQAPGQGLEWIGMIHPSDSATRLNQSFQGRVTLTVDKSTSTAYMELSSLRSEDTAVYYCARWGNFYTVNAWYYFDYWGQGTLVTVSS VL: DIVITQSPDSLAVSLGERATINCKSSQTLLNSNTQKNYLAWYQQKPGQSPKLLFYFASTRESGVPDRFSGSGSGTDFTLTISSLQAEDVAVYFCQQHYSTPLTFGQGTKLEIKR
